This assay deals with D-gal-induced AD mice. Description: Immunohistochemistry of brain in D-gal-induced AD mice. The conditions noted are these: compared with the D-gal group. It counts as in vivo. The method, then:
Each group comprised 10 mice. […] Dosing lasted for 10 weeks. […] The mice were sacrificed after 10 weeks of administration.
Firstly, the three mice of each group were subjected to heart perfusion at the end of the animal experiment, and the whole brain was removed and placed in 15 mL of 4% paraformaldehyde and stored at 4 °C for 24 h. Secondly, we changed 4% paraformaldehyde into 15% sucrose solution and stored the solution at 4 °C for 24 h. We then changed the solution to 30% sucrose solution to dehydrate for 2 days. Thirdly, the mouse brain tissue was embedded in a cryo-embedding medium, and about 80 slices with a thickness of 20 μm were cut in the hippocampus using a cryostat (Thermal Fisher, Shanghai, China). The sections of mice in each group were immunohistochemically stained with primary antibodies, such as neuronal nuclear anti gen (NeuN), ionized calcium-binding adapter molecule 1 (Iba-1), inducible nitric oxide synthase (iNOS, pro-inflammatory factors), synaptophysin (Syp), and glial fibrillary acidic protein (GFAP), and secondary antibody. The product number and usage ratios of primary and secondary antibodies are detailed in Supplementary Table S4. Finally, the sections were observed under an upright two-photon confocal microscope (Olympus BX61, Tokyo, Japan) and recorded by a camera. The pictures were digitized with ImageJ software V1.8.0.112 (National Institutes of Health, Bethesda, MD, USA).

The mark [1] stands for this setting: DON 3 mg/kg, GENI 12.5, 25, 50 mg/kg groups.

`COc1cc2c(cc1OC)C(=O)C(CC1CCN(Cc3ccccc3)CC1)C2` (centres unmarked) [DON, donepezil, reference compound]: the “activation of astrocytes (GFAP) in the cerebral cortex” value is given as “decreased”, the “activation of microglia (Iba-1) in the cerebral cortex” value is “decreased” and the “expression of iNOS in the cerebral cortex” value is “decreased”. Moreover, under setting [1], the “Syp intensity in the cerebral cortex” value is given as “significantly increased”; the “mature neurons (NeuN) in the cerebral cortex and hippocampus” value was “significantly increased”.

Source of the values: publication PMC11763059, “GENI as an AMPK Activator Binds α and γ Subunits and Improves the Memory Dysfunction of Alzheimer’s Disease Mouse Models via Autophagy and Neuroprotection” (Antioxidants, 2025).
